Results from patent US20080299072A1.
Results are given in words; binding and its absence hold for the method and conditions named. Some binding calls cover weakened binding; strength is not graded here.

The chains behind the UniProt entries cited, without tags or fusion partners. Where a name states a change or a piece, a line headed by the entry shows the natural chain unless it says otherwise.
UniProt P13501: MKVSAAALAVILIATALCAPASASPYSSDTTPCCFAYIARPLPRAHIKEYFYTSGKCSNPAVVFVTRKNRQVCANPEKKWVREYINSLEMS

target: T1, CCR1 (UniProt P32246); experiment: competition SPA on CCR1 CHO membranes
T1 sequence (looked up): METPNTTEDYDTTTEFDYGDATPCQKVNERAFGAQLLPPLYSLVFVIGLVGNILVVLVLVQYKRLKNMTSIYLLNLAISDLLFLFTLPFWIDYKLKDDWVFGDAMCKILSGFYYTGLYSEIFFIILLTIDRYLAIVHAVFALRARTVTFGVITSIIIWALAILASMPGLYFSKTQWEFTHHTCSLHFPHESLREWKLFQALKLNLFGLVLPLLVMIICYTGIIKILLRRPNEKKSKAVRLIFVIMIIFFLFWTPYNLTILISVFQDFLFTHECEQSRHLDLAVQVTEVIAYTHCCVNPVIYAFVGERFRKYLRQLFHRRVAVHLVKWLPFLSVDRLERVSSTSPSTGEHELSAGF

binding	Substance
binds	S4C-5 kDaPEG-RANTES (from UniProt P13501 24-91) (ligand)
binds	S5C-5 kDaPEG-RANTES (from UniProt P13501 24-91) (ligand)
binds	S1C-5 kDaPEG-RANTES (from UniProt P13501 25-91) (ligand)
